Results as given in article PMC5984089, “FBXW7 regulates DISC1 stability via the ubiquitin-proteosome system” (Molecular Psychiatry, 2017).
No constants are given. Whether binding was seen depends on the method and setting. In cells and extracts the contact can be indirect. Some entries that bind do so weakly or less than the wild type. Sequences can lack the tags named with a protein.

The chains behind the UniProt entries cited, without tags or fusion partners.
UniProt Q969H0: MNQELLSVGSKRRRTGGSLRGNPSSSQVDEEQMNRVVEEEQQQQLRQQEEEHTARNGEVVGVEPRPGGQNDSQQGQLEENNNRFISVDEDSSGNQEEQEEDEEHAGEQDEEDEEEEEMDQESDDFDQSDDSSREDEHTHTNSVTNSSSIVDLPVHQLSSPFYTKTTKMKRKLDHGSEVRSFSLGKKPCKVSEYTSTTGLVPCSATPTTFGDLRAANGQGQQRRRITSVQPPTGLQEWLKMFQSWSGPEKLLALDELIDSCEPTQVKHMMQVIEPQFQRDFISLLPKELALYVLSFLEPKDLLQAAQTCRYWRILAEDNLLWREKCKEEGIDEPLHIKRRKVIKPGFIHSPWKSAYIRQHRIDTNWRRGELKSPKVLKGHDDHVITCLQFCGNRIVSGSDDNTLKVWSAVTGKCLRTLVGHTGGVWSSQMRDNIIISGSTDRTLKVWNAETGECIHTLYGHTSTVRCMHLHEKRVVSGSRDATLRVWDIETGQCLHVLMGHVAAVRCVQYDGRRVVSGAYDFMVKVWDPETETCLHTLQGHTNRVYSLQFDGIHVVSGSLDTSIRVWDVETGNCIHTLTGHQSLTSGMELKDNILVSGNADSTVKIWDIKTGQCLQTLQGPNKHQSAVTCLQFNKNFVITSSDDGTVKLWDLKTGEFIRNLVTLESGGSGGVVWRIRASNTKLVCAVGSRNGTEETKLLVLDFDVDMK

T1: FLAG-DISC1 (UniProt Q9NRI5)
T1 sequence: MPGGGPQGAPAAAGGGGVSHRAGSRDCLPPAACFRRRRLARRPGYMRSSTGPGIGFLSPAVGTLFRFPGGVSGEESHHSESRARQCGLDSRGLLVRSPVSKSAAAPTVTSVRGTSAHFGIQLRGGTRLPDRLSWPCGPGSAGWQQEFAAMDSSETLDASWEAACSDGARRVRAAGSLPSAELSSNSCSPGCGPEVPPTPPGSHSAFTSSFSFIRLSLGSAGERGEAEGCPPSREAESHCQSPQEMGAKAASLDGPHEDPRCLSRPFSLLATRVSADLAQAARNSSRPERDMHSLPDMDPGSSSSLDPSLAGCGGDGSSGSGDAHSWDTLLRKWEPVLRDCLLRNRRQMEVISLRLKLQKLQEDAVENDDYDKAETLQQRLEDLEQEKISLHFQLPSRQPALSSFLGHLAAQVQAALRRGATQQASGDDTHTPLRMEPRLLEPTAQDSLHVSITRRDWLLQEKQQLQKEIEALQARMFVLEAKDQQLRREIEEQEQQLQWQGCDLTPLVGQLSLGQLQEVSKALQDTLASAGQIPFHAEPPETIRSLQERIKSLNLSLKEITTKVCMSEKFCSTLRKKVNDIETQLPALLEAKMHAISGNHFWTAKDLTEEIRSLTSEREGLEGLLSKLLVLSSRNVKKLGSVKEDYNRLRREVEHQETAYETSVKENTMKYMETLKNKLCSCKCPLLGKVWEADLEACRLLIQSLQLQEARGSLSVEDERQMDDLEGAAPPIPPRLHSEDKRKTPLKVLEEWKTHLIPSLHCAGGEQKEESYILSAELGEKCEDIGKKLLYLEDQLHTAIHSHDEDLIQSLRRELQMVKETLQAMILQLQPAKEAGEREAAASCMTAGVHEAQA


Assays:
FLAG-DISC1 = target: T1, FLAG-DISC1; assay: co-IP; HEK293 cells transfected; FLAG immunoprecipitated from cell lysates on tagged agarose, overnight at 4 °C; western blot
FLAG-tagged FBXW7 = FLAG-tagged FBXW7 (UniProt Q969H0); assay: as above

Row | binding (FLAG-DISC1) | binding (FLAG-tagged FBXW7) | Molecule
1 | binds |  | endogenous FBXW7 (from UniProt Q969H0 1-707)
2 |  | binds | GFP-DISC1 (protein, UniProt Q9NRI5 1-854) MPGGGPQGAPAAAGGGGVSHRAGSRDCLPPAACFRRRRLARRPGYMRSSTGPGIGFLSPAVGTLFRFPGGVSGEESHHSESRARQCGLDSRGLLVRSPVSKSAAAPTVTSVRGTSAHFGIQLRGGTRLPDRLSWPCGPGSAGWQQEFAAMDSSETLDASWEAACSDGARRVRAAGSLPSAELSSNSCSPGCGPEVPPTPPGSHSAFTSSFSFIRLSLGSAGERGEAEGCPPSREAESHCQSPQEMGAKAASLDGPHEDPRCLSRPFSLLATRVSADLAQAARNSSRPERDMHSLPDMDPGSSSSLDPSLAGCGGDGSSGSGDAHSWDTLLRKWEPVLRDCLLRNRRQMEVISLRLKLQKLQEDAVENDDYDKAETLQQRLEDLEQEKISLHFQLPSRQPALSSFLGHLAAQVQAALRRGATQQASGDDTHTPLRMEPRLLEPTAQDSLHVSITRRDWLLQEKQQLQKEIEALQARMFVLEAKDQQLRREIEEQEQQLQWQGCDLTPLVGQLSLGQLQEVSKALQDTLASAGQIPFHAEPPETIRSLQERIKSLNLSLKEITTKVCMSEKFCSTLRKKVNDIETQLPALLEAKMHAISGNHFWTAKDLTEEIRSLTSEREGLEGLLSKLLVLSSRNVKKLGSVKEDYNRLRREVEHQETAYETSVKENTMKYMETLKNKLCSCKCPLLGKVWEADLEACRLLIQSLQLQEARGSLSVEDERQMDDLEGAAPPIPPRLHSEDKRKTPLKVLEEWKTHLIPSLHCAGGEQKEESYILSAELGEKCEDIGKKLLYLEDQLHTAIHSHDEDLIQSLRRELQMVKETLQAMILQLQPAKEAGEREAAASCMTAGVHEAQA
3 |  | binds | V5-DISC1 (protein, UniProt Q9NRI5 1-854) MPGGGPQGAPAAAGGGGVSHRAGSRDCLPPAACFRRRRLARRPGYMRSSTGPGIGFLSPAVGTLFRFPGGVSGEESHHSESRARQCGLDSRGLLVRSPVSKSAAAPTVTSVRGTSAHFGIQLRGGTRLPDRLSWPCGPGSAGWQQEFAAMDSSETLDASWEAACSDGARRVRAAGSLPSAELSSNSCSPGCGPEVPPTPPGSHSAFTSSFSFIRLSLGSAGERGEAEGCPPSREAESHCQSPQEMGAKAASLDGPHEDPRCLSRPFSLLATRVSADLAQAARNSSRPERDMHSLPDMDPGSSSSLDPSLAGCGGDGSSGSGDAHSWDTLLRKWEPVLRDCLLRNRRQMEVISLRLKLQKLQEDAVENDDYDKAETLQQRLEDLEQEKISLHFQLPSRQPALSSFLGHLAAQVQAALRRGATQQASGDDTHTPLRMEPRLLEPTAQDSLHVSITRRDWLLQEKQQLQKEIEALQARMFVLEAKDQQLRREIEEQEQQLQWQGCDLTPLVGQLSLGQLQEVSKALQDTLASAGQIPFHAEPPETIRSLQERIKSLNLSLKEITTKVCMSEKFCSTLRKKVNDIETQLPALLEAKMHAISGNHFWTAKDLTEEIRSLTSEREGLEGLLSKLLVLSSRNVKKLGSVKEDYNRLRREVEHQETAYETSVKENTMKYMETLKNKLCSCKCPLLGKVWEADLEACRLLIQSLQLQEARGSLSVEDERQMDDLEGAAPPIPPRLHSEDKRKTPLKVLEEWKTHLIPSLHCAGGEQKEESYILSAELGEKCEDIGKKLLYLEDQLHTAIHSHDEDLIQSLRRELQMVKETLQAMILQLQPAKEAGEREAAASCMTAGVHEAQA
